From PubChem BioAssay AID2685 (National Center for Advancing Translational Sciences (NCATS), 2010)
About 2,100 (0.66%) of roughly 320,000 compounds were called active. The shares of active, inactive and inconclusive entries below differ from those in the screen. Calls follow the shape of the dose curve; as a rule, active = well fitted inhibition curve with a large enough effect in the signal ratio, with a control signal flat (not every such curve was filed as active); inconclusive = small, poorly fitted or top-dose-only effect, or effect the other way, or a change in a side signal; inactive = flat fitted curve, though single readings scatter; the % refers to the signal ratio. Potencies of inconclusive entries are doubtful fits and often do not repeat.
% is scaled to controls: 0 for no effect and ±100 for the full control effect; potency is read from the fitted curve at half-maximal effect.

Experiment: qHTS Assay for Lipid Storage Modulators in Drosophila S3 Cells
Details: BODIPY lipid droplet fluorescence, 18-24 h, cells fed with added oleic acid; lipid storage change, negative = inhibition: at 46.1 µM (top of the series) unless noted
Summary of the method: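 Drosophila S3 cells got compounds at several concentrations plus oleic acid (400 uM solution). Laser-scanning cytometry with 488 nm excitation read lipid droplets at 500-530 nm and cells at 575-640 nm. Percent activity was relative to 20 uM Triacsin C.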
For `O=c1[nH]c2ccc(Cl)cc2c(O)c1-c1ccccc1`, the lipid storage change, negative = inhibition was inconclusive: -3.71%. With `O=C(Nc1ccccc1)N(Cc1ccccc1)C1=NCCS1` the lipid storage change, negative = inhibition was inconclusive: -0.212%. For `Cc1cc(=O)[nH]c(-n2nc(C)c(Oc3ccccc3O)c2C)n1`, the lipid storage change, negative = inhibition was inconclusive: 41.1%. In the case of `COc1ccccc1OC(C)C(=O)Nc1nc(-c2ccc(S(=O)(=O)N3CCOCC3)cc2)cs1` (stereo not given), the Potency is reported as inconclusive: 29.1 µM [falling, single point]. With `COc1ccc(CNC(=O)c2cc(S(=O)(=O)N3CCOCC3)cn2C)cc1` the lipid storage change, negative = inhibition was inconclusive: 20.7%. For `O=C(CSc1ccc(-c2cccs2)nn1)NCc1ccccc1Cl`, the lipid storage change, negative = inhibition was inconclusive: -16.2%. With `CCc1ccccc1NC(=O)CSc1nnc([C@@H](NC(=O)OC(C)(C)C)C(C)CC)o1` (stereo not given in full) the lipid storage change, negative = inhibition was inconclusive: 13.9%. With `COc1ccc(F)cc1C(=O)C1CCCN(C(=O)CSc2ccccn2)C1` (stereo not given) the lipid storage change, negative = inhibition was inconclusive: -24.9%. In the case of `Cc1nc2cc(-c3cccc(F)c3)nn2c(C)c1CCC(=O)NC(C)CCc1ccco1` (stereo not given), the Potency is reported as inconclusive: 18.4 µM [falling, single point]. For `Cc1ccc(S(=O)(=O)N(CC(=O)c2ccc(Cl)cc2)C(=O)N2CCN(C)CC2)cc1`, the lipid storage change, negative = inhibition was inconclusive: 2.1%. For `Cc1ccc(S(=O)(=O)Nc2ccccc2F)cc1C(=O)NCCCN1CCCC1=O`, the lipid storage change, negative = inhibition was inconclusive: -8.8%. For `Cc1nc2c(c(=O)n1CCC1=CCCCC1)c1nc3ccccc3nc1n2/N=C/c1ccco1`, the Potency was inconclusive: 6.51 µM [rising, single point]. In the case of `Cc1ccc(OCC(=O)Nc2cccc(S(=O)(=O)N3CCCCCC3)c2)c([N+](=O)[O-])n1`, the Potency is reported as inconclusive: 6.51 µM [falling, single point]. In the case of `Cc1ccc(NCC(=O)Nc2cccc(F)c2)cc1S(=O)(=O)N1CCCCCC1`, the lipid storage change, negative = inhibition is reported as inconclusive: -38.9%. In the case of `O=C(CNC(=O)c1cccs1)NC1=NCCS1`, the lipid storage change, negative = inhibition is reported as inconclusive: 0.357%. With `CCc1ccc2nc(N3C(=O)C(O)=C(C(=O)c4ccco4)C3c3cccs3)sc2c1` (stereo not given) the lipid storage change, negative = inhibition was inconclusive: -22.3%. In the case of `Cc1ccc(C(=O)N(C)CC(=O)Nc2cccc(F)c2)cc1S(=O)(=O)N1CCCCC1`, the lipid storage change, negative = inhibition is reported as inconclusive: 18.8%. In the case of `Cc1ccc(NC(=O)Cn2nnc(C(=O)NCCc3ccccc3)c2N)cc1Cl`, the Potency is reported as inconclusive: 6.51 µM [falling, single point]. With `O=C(COc1cccc2ccccc12)NCc1cccnc1` the lipid storage change, negative = inhibition was inconclusive: 77.4%. In the case of `Cc1ccc(-n2nc3c(=O)n(CCCC(=O)NCc4ccccc4F)nc(C)c3c2C)cc1`, the Potency is reported as inconclusive: 6.51 µM [activator, partial curve, poor fit]. In the case of `O=C(COc1ccc(Br)cc1)N1CCN(c2ncccn2)CC1`, the Potency is reported as inconclusive: 4.61 µM [falling, full curve, poor fit]. In the case of `Cc1ccc(Nc2ccc(C(=O)NCCc3ccccc3)cn2)cc1`, the lipid storage change, negative = inhibition is reported as inconclusive: 26.8%. In the case of `CN1CCN(C(=O)c2ccccc2NS(=O)(=O)c2ccc(F)cc2)CC1`, the lipid storage change, negative = inhibition is reported as inconclusive: -37%. With `CCOC(=O)c1ccc(NC(=O)Oc2ccccc2)cc1` the lipid storage change, negative = inhibition was inconclusive: -18.8%. For `CCO[C@H]1OC(C(=O)Nc2ccccc2)=C[C@@H](c2ccc(C(F)(F)F)cc2)[C@@H]1CCCO`, the lipid storage change, negative = inhibition was inconclusive: -29.4%. With `O=C(OCC(=O)N1CCCc2ccccc21)c1ccc(C(F)(F)F)cc1` the lipid storage change, negative = inhibition was inconclusive: -3.83%. In the case of `O=C(Cn1c(-c2ccc(Cl)cc2)noc1=O)N1CCN(c2ccccc2F)CC1`, the lipid storage change, negative = inhibition is reported as inconclusive: 19.4%. With `CC(/C=C/c1ccco1)=N\NC(=O)C(O)c1ccccc1` (stereo not given) the Potency was inconclusive: 0.58 µM [activator, single point]. With `O=C(CSc1ccc2c(c1)OCCO2)Nc1ccc(Cl)cn1` the lipid storage change, negative = inhibition was inconclusive: 11.6%. In the case of `Cc1ccccc1NC(=O)COc1coc(CN2CCN(Cc3ccccc3)CC2)cc1=O`, the lipid storage change, negative = inhibition is reported as inconclusive: -3.04%. With `Cc1ccc(NC(=O)c2oc3c(c2C)C(=O)CC(C)(C)C3)cc1` the Potency was inconclusive: 6.51 µM [activator, single point]. For `COc1ccc(Br)cc1CN(C)CC(O)COc1ccc(Br)cc1` (stereo not given), the lipid storage change, negative = inhibition was inconclusive: -28.1%. With `Cc1nc2c(sc(=S)n2Cc2ccco2)c(=O)n1CC(=O)Nc1ccccc1F` the lipid storage change, negative = inhibition was inconclusive: 2.69%. For `CCOc1ccc(-n2c(Cc3cc(=O)[nH]c(=O)[nH]3)nnc2SCc2cccnc2)cc1`, the lipid storage change, negative = inhibition was inconclusive: 55.6%. With `O=c1[nH]c(/C=C\c2cccc(C(F)(F)F)c2)nc(O)c1[N+](=O)[O-]` the Potency was inconclusive: 0.116 µM [activator, full curve, poor fit]. In the case of `N#CCc1ccc(NS(=O)(=O)c2cccs2)cc1`, the Potency is reported as inconclusive: 29.1 µM [falling, single point]. In the case of `COc1cc(NC(=S)N2CCN(CCO)CC2)c(OC)cc1Cl`, the lipid storage change, negative = inhibition is reported as inconclusive: 16.9% [at 9.22 µM]. For `N#CCCn1c(C2CCCCC2)nc2ccccc21`, the lipid storage change, negative = inhibition was inconclusive: 24.1%. In the case of `COc1cccc(C(C)NC(=O)Nc2ccccc2Cl)c1` (stereo not given), the lipid storage change, negative = inhibition is reported as inconclusive: -28.9%. In the case of `N#C/C(=C/c1cccc([N+](=O)[O-])c1)C(=O)Nc1ccccc1O`, the lipid storage change, negative = inhibition is reported as “inactive”. In the case of `NS(=O)(=O)c1ccc(CCN=Cc2ccccc2O)cc1`, the lipid storage change, negative = inhibition is reported as inconclusive: -13.4%. For `Cc1cc(=O)n2nc(N3CCCC(C(=O)NCCc4ccc(Cl)cc4)C3)sc2n1` (stereo not given), the lipid storage change, negative = inhibition was inconclusive: 65.8%. For `NNC(=O)c1ccc(CSc2nc3ccccc3s2)cc1`, the lipid storage change, negative = inhibition was inconclusive: 20.6%. For `CSc1nc(Oc2ccc3ccccc3c2)c2sccc2n1`, the lipid storage change, negative = inhibition was inconclusive: 27.7%. With `Cc1c(NC(=O)c2cccc(NC(=O)Cc3ccccc3F)c2)c(=O)n(-c2ccccc2)n1C` the lipid storage change, negative = inhibition was inconclusive: 7.13%. With `COc1ccc(-c2cc(=O)oc3c(C)c(OCC(=O)N[C@@H](Cc4ccc(O)cc4)C(=O)O)ccc23)cc1` the lipid storage change, negative = inhibition was inconclusive: 30.9%. For `CCN(CC(=O)NCc1ccccn1)S(=O)(=O)c1ccc(OC)cc1`, the Potency was inconclusive: 3.26 µM [falling, single point]. With `FC(F)(F)c1ccc(N2CCN(c3ncnc4c3nnn4Cc3ccccc3)CC2)nc1` the lipid storage change, negative = inhibition was inconclusive: 19.3%. For `COc1ccc(S(=O)(=O)Nc2cc3c4c(c2)CCN4C(=O)CC3)cc1C`, the lipid storage change, negative = inhibition was inconclusive: 8.61% [at 0.0737 µM]. For `CC(Nc1nc2ccccc2n2cnnc12)c1ccccc1` (stereo not given), the lipid storage change, negative = inhibition was inconclusive: -26.7%. In the case of `Cc1cc(NC(=O)c2c(-c3ccccc3Cl)noc2C)no1`, the Potency is reported as inconclusive: 20.6 µM [activator, single point]. For `COc1ccc(N2CCOCC2)c(NC(=O)c2cccnc2)c1`, the lipid storage change, negative = inhibition was inconclusive: 113%. With `CC(C)CNC(=O)C1CCN(CC2CCCCC2)CC1` the Potency was inconclusive: 5.8 µM [activator, full curve]. With `Cc1cc(C)cc(NC(=O)C2CCN(S(=O)(=O)c3ccc4[nH]c(=O)ccc4c3)CC2)c1` the lipid storage change, negative = inhibition was inconclusive: -35.2%. For `O=C(NCc1cccnc1)c1ccc2c(c1)C(=O)N(Cc1ccccc1)C2=O`, the Potency was inconclusive: 20.6 µM [activator, single point]. With `O=[N+]([O-])c1ccc(O)c(/C=N/Nc2nc3ccccc3[nH]2)c1` the Potency was inconclusive: 23.1 µM [falling, single point]. For `CCC(CC)c1nnc(NC(=O)C23CC4CC(CC(NC(C)=O)(C4)C2)C3)s1`, the lipid storage change, negative = inhibition was inconclusive: -18.4%. With `O=C(COC(=O)C1C2CC3OC(=O)C1C3C2)Nc1ccc(Br)cc1` (stereo not given) the lipid storage change, negative = inhibition was inconclusive: 22.6%. In the case of `CCN1CCN(C(=O)c2ccc(C)c(S(=O)(=O)Nc3cccc(C)c3)c2)CC1`, the Potency is reported as inconclusive: 25.9 µM [activator, single point]. In the case of `COc1ccc(CNC(=O)[C@H](C)NC(=O)C2CCN(S(=O)(=O)c3ccc(C)cc3)CC2)cc1`, the lipid storage change, negative = inhibition is reported as “inactive”. In the case of `O=C(NCCC(c1ccccc1)c1ccccc1)c1cnccn1`, the Potency is reported as inconclusive: 2.06 µM [activator, partial curve]. In the case of `Cc1ccc(Cl)cc1Nc1nc(N2CCOCC2)nc(N2CCOCC2)n1`, the lipid storage change, negative = inhibition is reported as inconclusive: 93.7%. For `CN(CC(=O)Nc1ccc(S(=O)(=O)N2CCCC2)cc1)CC(=O)Nc1cccc(F)c1`, the lipid storage change, negative = inhibition was inconclusive: -21%. In the case of `COC(=O)c1cccc(NS(=O)(=O)c2cccs2)c1C`, the lipid storage change, negative = inhibition is reported as inconclusive: 50.8%. For `O=C(CSc1nnc(-c2ccc(C(F)(F)F)cn2)o1)Nc1cccc(Cl)c1`, the Potency was inconclusive: 0.13 µM [falling, full curve, poor fit]. For `COCCNCC(=O)Nc1ccc(C)c(S(=O)(=O)N2CCCCC2)c1`, the lipid storage change, negative = inhibition was inconclusive: 13.2%. In the case of `COc1ccc2cc(C(=O)NC3CCCCC3)c(=O)oc2c1`, the Potency is reported as inconclusive: 2.06 µM [activator, partial curve, poor fit]. With `O=C(Nc1ccc(Br)cc1)c1ccccc1Br` the Potency was inconclusive: 29.1 µM [falling, single point]. For `COc1ccc(OCC(=O)NNC(=O)c2c(-c3ccccc3Cl)noc2C)cc1`, the lipid storage change, negative = inhibition was inconclusive: 3.08%. For `COc1cccc(CN2CCNC(=O)C2CC(=O)NCc2cn3cccc(C)c3n2)c1OC` (stereo not given), the lipid storage change, negative = inhibition was “inactive”. In the case of `CCN(CC)S(=O)(=O)c1cc(C(=O)OCC(=O)c2ccc3c(c2)NC(=O)CO3)ccc1Cl`, the lipid storage change, negative = inhibition is reported as inconclusive: -11.7%. With `Cc1ccc(N(C(=O)CCl)C(C(=O)NC2CCCCC2)c2cccnc2)cc1C` (stereo not given) the Potency was inconclusive: 29.1 µM [falling, single point]. With `O=C(NC1=NC2CCCCC2N1)c1ccccc1` (stereo not given) the Potency was inconclusive: 0.0046 µM [falling, full curve, poor fit]. In the case of `O=C(c1cc(-c2ccc(F)cc2)no1)N1CCN(Cc2ccc3c(c2)OCO3)CC1`, the lipid storage change, negative = inhibition is reported as inconclusive: 34%. In the case of `CCc1ccc(C(=O)COC(=O)CCc2nc3ccccc3c(=O)[nH]2)cc1`, the Potency is reported as inconclusive: 8.2 µM [activator, partial curve].
